Measured values from patent US20230076670A1.
No constants are given. Whether binding was seen depends on the method and setting. Some results given as binding are weak or reduced against the parent protein; the word gives no strength. Sequences can lack the tags named with a protein.

Assays:
[1] = target: T1, porcine aminopeptidase N (pAPN), full-length, expressed on the membrane of APN-transfected BHK21 and IPEC-J2 cells (Sus scrofa (pig)) (UniProt P15145); test: immunohistochemistry on porcine ileum cryosections
T1 sequence (looked up): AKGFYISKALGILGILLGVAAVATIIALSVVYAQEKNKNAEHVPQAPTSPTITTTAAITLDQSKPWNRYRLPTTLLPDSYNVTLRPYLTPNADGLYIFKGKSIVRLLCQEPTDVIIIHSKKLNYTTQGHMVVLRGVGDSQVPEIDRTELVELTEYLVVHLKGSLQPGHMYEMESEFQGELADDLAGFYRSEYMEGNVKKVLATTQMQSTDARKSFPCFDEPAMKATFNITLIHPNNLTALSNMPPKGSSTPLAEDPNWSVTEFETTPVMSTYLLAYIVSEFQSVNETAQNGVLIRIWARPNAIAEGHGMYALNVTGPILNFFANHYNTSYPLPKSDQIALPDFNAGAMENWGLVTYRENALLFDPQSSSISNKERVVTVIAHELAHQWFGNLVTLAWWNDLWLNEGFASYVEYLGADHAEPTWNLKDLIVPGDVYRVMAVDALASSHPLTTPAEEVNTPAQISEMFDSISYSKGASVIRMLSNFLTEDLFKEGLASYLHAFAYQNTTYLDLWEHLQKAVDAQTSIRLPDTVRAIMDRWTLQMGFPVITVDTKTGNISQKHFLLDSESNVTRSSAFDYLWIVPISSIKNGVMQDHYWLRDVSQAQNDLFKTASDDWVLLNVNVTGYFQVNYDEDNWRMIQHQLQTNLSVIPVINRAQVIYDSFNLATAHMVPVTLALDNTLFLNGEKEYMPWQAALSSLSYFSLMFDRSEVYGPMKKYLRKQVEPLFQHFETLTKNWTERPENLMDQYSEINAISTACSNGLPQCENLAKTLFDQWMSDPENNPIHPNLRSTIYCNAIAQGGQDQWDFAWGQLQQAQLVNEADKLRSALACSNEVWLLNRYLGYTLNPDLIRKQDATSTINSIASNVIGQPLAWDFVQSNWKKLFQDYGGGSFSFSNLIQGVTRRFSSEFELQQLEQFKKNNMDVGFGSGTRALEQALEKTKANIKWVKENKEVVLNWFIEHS

[2] = target: T1, porcine aminopeptidase N (pAPN), full-length, expressed on the membrane of APN-transfected BHK21 and IPEC-J2 cells (Sus scrofa (pig)); test: flow cytometry on APN-expressing cells, purified VHH-MG
[3] = target: T1, porcine aminopeptidase N (pAPN), full-length, expressed on the membrane of APN-transfected BHK21 and IPEC-J2 cells (Sus scrofa (pig)); test: gut ligated loop assay in piglet jejunum, immunohistochemistry
[4] = target: T1, porcine aminopeptidase N (pAPN), full-length, expressed on the membrane of APN-transfected BHK21 and IPEC-J2 cells (Sus scrofa (pig)); test: endocytosis assay on APN-expressing BHK21 cells, confocal imaging
[5] = target: T2, APN isolated from porcine kidney (Sigma, cat. No. L6007-50UN), coated on ELISA plates (pig) (UniProt P15145); test: ELISA on coated kidney APN, culture supernatant, three-fold dilution series
T2 sequence (looked up): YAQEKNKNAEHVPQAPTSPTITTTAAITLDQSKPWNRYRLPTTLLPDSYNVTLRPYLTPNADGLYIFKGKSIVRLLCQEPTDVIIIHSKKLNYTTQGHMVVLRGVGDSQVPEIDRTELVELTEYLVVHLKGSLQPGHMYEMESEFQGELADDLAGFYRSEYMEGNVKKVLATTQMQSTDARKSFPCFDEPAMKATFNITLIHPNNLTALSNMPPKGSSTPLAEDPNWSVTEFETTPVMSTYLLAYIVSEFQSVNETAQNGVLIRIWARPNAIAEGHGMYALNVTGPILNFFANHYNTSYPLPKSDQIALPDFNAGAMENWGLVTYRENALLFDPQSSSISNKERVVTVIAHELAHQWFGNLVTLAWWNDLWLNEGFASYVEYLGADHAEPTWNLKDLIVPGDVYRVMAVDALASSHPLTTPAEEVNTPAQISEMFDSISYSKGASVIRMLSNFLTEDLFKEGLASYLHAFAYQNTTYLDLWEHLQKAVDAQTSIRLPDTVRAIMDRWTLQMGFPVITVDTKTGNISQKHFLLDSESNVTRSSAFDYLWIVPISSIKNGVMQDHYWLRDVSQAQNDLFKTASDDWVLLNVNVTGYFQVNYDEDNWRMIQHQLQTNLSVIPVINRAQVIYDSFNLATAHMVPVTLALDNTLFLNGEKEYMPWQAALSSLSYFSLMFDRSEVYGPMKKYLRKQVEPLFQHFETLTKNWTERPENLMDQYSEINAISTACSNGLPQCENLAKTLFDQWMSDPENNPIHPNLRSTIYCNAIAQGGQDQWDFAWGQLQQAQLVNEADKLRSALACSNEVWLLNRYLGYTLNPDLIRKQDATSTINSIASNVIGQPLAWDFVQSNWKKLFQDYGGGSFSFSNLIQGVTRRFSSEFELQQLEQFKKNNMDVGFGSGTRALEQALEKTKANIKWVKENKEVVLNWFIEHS

[6] = target: T1, porcine aminopeptidase N (pAPN), full-length, expressed on the membrane of APN-transfected BHK21 and IPEC-J2 cells (Sus scrofa (pig)); test: flow cytometry of crude periplasmic extracts on pAPN-expressing BHK21 cells

Measured: binding

B1: 3L94-MG (3L94 VHH fused to the Fc domain of mouse IgG2a) (Fc fusion)
chain: QVQLQESGGGLVQPGDSLRLSCAASGRTFSTYAMGWFRQAPGKEREFVAYISQLSLSTKYADSVKGRFTVSRDDAQNTLYLQMNSLRPEDTAVYYCATRSQNYVTTYDQSRAYDYWGQGTQVTVSSEPRGPTIKPCPPCKCPAPNLLGGPSVFIFPPKIKDVLMISLSPIVTCVVVDVSEDDPDVQISWFVNNVEVHTAQTQTHREDYNSTLRVVSALPIQHQDWMSGKEFKCKVNNKDLPAPIERTISKPKGSVRAPQVYVLPPPEEEMTKKQVTLTCMVTDFMPEDIYVEWTNNGKTELNYKNTEPVLDSDGSYFMYSKLRVEKKNWVERNSYSCSVVHEGLHNHHTTKSFSRTPGK
modifications: Disulfide-linked homodimer of this chain.
not listed: [6]
binds: all other assays above

B2: 3L94 VHH (crude periplasmic extract, pMECS, HA and His6 tag) (VHH)
VHH: QVQLQESGGGLVQPGDSLRLSCAASGRTFSTYAMGWFRQAPGKEREFVAYISQLSLSTKYADSVKGRFTVSRDDAQNTLYLQMNSLRPEDTAVYYCATRSQNYVTTYDQSRAYDYWGQGTQVTVSS
binds: [6]
